Experimental data taken from PubChem BioAssay AID1259415 (National Center for Advancing Translational Sciences (NCATS), 2018).
Hit rate of the full screen: of about 410,000 compounds, about 18,000 (4.4%) were called active. The shares of active, inactive and inconclusive entries below differ from those in the screen. No stated cut-off is given here; in the data, active means activity change below about -60%; inconclusive means no clear call, values can overlap the other calls; inactive means above about -39%.

assay: qHTS Assay for inhibitors of the human cytomegalovirus (HCMV); conditions: HFF cells, HCMV-luciferase reporter, 72 h; at 57.5 µM; hits give low values
Method in brief: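 After 16 h attachment at 37C, HFF cells received test compound and HCMV-luciferase (1 PFU/cell); reporter luminescence read 72 h later, data normalized against buffer-only and known inhibitor Salinomycin.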
On the % scale 0 is the no-effect control and ±100 the full control effect.

Row | Compound | activity change, negative = inhibition
1 | CCOC(=O)c1[nH]c(C)c(CCC(=O)Nc2cccc(C(F)(F)F)c2)c1C | inactive: -24.1%
2 | CCc1nn2c(=O)cc(COC(=O)c3ccccc3NC(=O)COc3ccc(F)cc3)nc2s1 | inconclusive: -40.5%
3 | COc1cccc(C(=O)Nc2cc(=O)n(C)c(=O)n2C)c1 | inconclusive: -43.3%
4 | C/C(=N\NC(=O)c1cc(C)[nH]n1)c1cccs1 | inactive: 29.3%
5 | CC1=CC2=NC(=O)/C(=C\c3cccn3CCOc3cccc(C)c3)C(=N)N2O1 | inconclusive: -41.9%
6 | COc1ccc2c(c1)c1c(c(=O)n(-c3cccc(Cl)c3)c(=O)n1CC(=O)NCC1CCCO1)n2C (stereo not given) | inactive: -0.574%
7 | CC(C)C(NC(=O)Cc1ccccc1)C(=O)N1CCN(c2cccc(Cl)c2)CC1 (stereo not given) | active: -101%
8 | Cc1ccc(CNC(=O)CCS(=O)(=O)c2ccc3c(c2)CC(C)N3C(=O)C2CC2)cc1 (stereo not given) | inconclusive: -49.2%
9 | CCOc1ccc(-n2cc(-c3ccccc3)c3c(NC4CCCCC4)ncnc32)cc1 | inconclusive: -47.3%
10 | Cc1c(/N=C(\[O-])Nc2ccc(Br)cc2)sn[n+]1C | inconclusive: -54.4%
11 | COc1ccc(S(=O)(=O)Nc2noc3ccccc23)cc1 | inactive: 37.2%
12 | CCCCn1c(NC(=O)c2ccccc2Cl)c(C#N)c2nc3ccccc3nc21 | active: -60.5%
13 | C(#Cc1ccccc1)C[N+]1(CC#Cc2ccccc2)CCCC1 | inconclusive: -48.2%
14 | CC1(C)CC2CC(C)(CN2C(=O)COC(=O)c2ccc(Cl)cc2N)C1 (stereo not given) | inconclusive: -50.3%
15 | CCN(C(=O)CN1CC=C(c2ccccc2)CC1)c1c(N)n(Cc2ccccc2)c(=O)[nH]c1=O | active: -61.8%
16 | Cn1cc(CNCc2ccccc2OCC(O)CN2CCc3ccccc3C2)cn1 (stereo not given) | inactive: -39.9%
17 | CCOc1ccccc1NC(=O)Cn1c(=O)oc2cc(S(=O)(=O)NCc3ccccc3)ccc21 | inconclusive: 0%
18 | CC(C)(C)[C@@H]1C=C(C(=O)NCc2ccccc2)O[C@H](OCc2ccc(CO)cc2)C1 | inactive: -1.54%
19 | CN(C)c1ccc(CNC(=O)C2CCCN(S(=O)(=O)c3ccc4c(ccn4C)c3)C2)cc1 (stereo not given) | inconclusive: -42.3%
20 | CCn1c(SCC(=O)c2cccs2)nnc1-c1ccco1 | inactive: 35.6%
21 | CCOC(=O)C1=C(N)c2ccccc2CC1C1CCCC1 (stereo not given) | inconclusive: -46.4%
22 | N/C(Cc1ccc([N+](=O)[O-])cc1)=N\OC(=O)c1ccc(Br)o1 | inconclusive: -49.9%
23 | Cc1ccc(NC(=O)COc2ccc(-c3nn(C)c(=O)c4ccccc34)cc2)cc1 | inactive: -6.91%
24 | CCCCNC(=O)N1CCN(c2ccccc2OCC)CC1 | inconclusive: -45%
25 | Cc1c(Cl)cccc1NC(=S)N1CCC(C(N)=O)(N2CCCCC2)CC1 | inconclusive: -49.4%
26 | COCCCn1c(=O)c2sccc2n2c(CCCC(=O)NCc3ccccc3)nnc12 | inconclusive: -44.9%
27 | CCOC(=O)C1CCCN(C(=O)c2ccc(S(=O)(=O)N3CCCC3)cc2)C1 (stereo not given) | inactive: 10.4%
28 | O=C(Nc1ccccc1C(=O)N1CCCCCC1)c1cccc(S(=O)(=O)N2CCOCC2)c1 | inactive: -12.9%

Row | Compound | activity change, negative = inhibition
29 | COc1ccc(Cl)cc1Nc1nc(N)c2ccccc2n1 | inactive: 83.7%
30 | OCC[C@@H]1C[C@H](O)[C@@H](O)[C@@]2(OCCCc3cc(C(F)(F)F)ccc32)O1 | inactive: 17.9%
31 | CC(=O)c1sc(NC(=O)C(C)(C)C)nc1C | inactive: -16.7%
32 | Cc1cc(C(=O)CSc2nc(N)cc(=O)[nH]2)c(C)n1-c1cccc(F)c1 | active: -80.8%
33 | CCS(=O)(=O)N1CCC(c2nc(-c3ccc(C)cc3)no2)CC1 | inconclusive: -41.5%
34 | O=c1cc(CSc2ccccc2)[nH]c2ccccc12 | inconclusive: -43.2%
35 | COc1ccc(NC(C)C(=O)Nc2cccc(S(=O)(=O)N3CCOCC3)c2)cc1OC (stereo not given) | inconclusive: -55.1%
36 | CCN(CC)S(=O)(=O)c1ccc(NC(=O)c2cc(C(=O)OC)cc([N+](=O)[O-])c2)cc1 | inactive: -29%
37 | CCOC(=O)c1cccc(NS(=O)(=O)c2ccc(NC(C)=O)cc2)c1 | active: -87.9%
38 | Cc1cc(C)cc(OCC(=O)OC/C(O)=C(\C#N)c2nc3ccccc3[nH]2)c1 | active: -80.7%
39 | CCn1nc(C)cc1C(=O)Sc1cccc(Cl)c1 | inconclusive: -40.5%
40 | CCN(CC(=O)Nc1c(F)cccc1F)C(=O)c1ccc(Sc2nncn2C)c([N+](=O)[O-])c1 | inconclusive: -50.5%
41 | Cc1ccc(/C=C/C(=O)Nc2nn[nH]n2)o1 | inactive: -28.9%
42 | CCOC(=O)c1c(/N=C/c2c(O)n(-c3cccc(C)c3)c(=O)[nH]c2=O)sc2c1CCCC2 | inconclusive: -44%
43 | Cc1ccc2c(c1)C1CN(C)CCC1N2S(=O)(=O)c1ccccc1 (stereo not given) | inconclusive: -53.7%
44 | CCOc1cc(C(=O)Nc2ccc3c(c2)OCO3)ccc1OC(F)F | inconclusive: -48.1%
45 | N#Cc1ccc(CSC2=NCCN2)cc1 | inconclusive: -41.3%
46 | COc1ccc(C(=O)NCC(C)(C)N2CCOCC2)cc1S(=O)(=O)NCc1ccc(Cl)cc1 | active: -67.2%
47 | O=C(CC1Sc2ccccc2NC1=O)Nc1ccccc1[N+](=O)[O-] (stereo not given) | inconclusive: -54.4%
48 | C[C@]1(O)CC(=O)C=C[C@H]1Nc1ccccc1 | inconclusive: -41.1%
49 | CCN(CC)CCOC(=O)c1ccc(NC(=O)c2ccc(Cl)c(S(=O)(=O)N3CCCCCC3)c2)cc1 | inconclusive: -57.6%
50 | Cc1occc1-c1nnc(SCC(=O)Nc2ccccc2)n1C | inconclusive: -47.2%
51 | CCN(CCCNC(=O)c1cc2c(=O)[nH]c3ccccc3c2s1)c1ccccc1 | active: -81.2%
52 | CC(=O)Nc1cccc(N2C(=O)CC(Cc3ccccc3)C2=O)c1 (stereo not given) | inconclusive: -46.8%
53 | O=C(Nc1ccc(S(=O)(=O)Nc2ncccn2)cc1)c1ccc(Br)cc1 | inconclusive: -47.9%
54 | Cc1noc(C)c1C(=O)Nc1sc(C)c(-c2ccccc2)c1C#N | active: -104%
55 | CSc1ncccc1C(=O)Nc1nccs1 | inconclusive: -40.2%

Some values from the list.
For activity change, negative = inhibition, CCOc1cc(C(=O)Nc2ccc3c(c2)OCO3)ccc1OC(F)F is entered as inconclusive: -48.1%
For activity change, negative = inhibition, CC(=O)c1sc(NC(=O)C(C)(C)C)nc1C is entered as inactive: -16.7%
For activity change, negative = inhibition, CCN(CC)S(=O)(=O)c1ccc(NC(=O)c2cc(C(=O)OC)cc([N+](=O)[O-])c2)cc1 is entered as inactive: -29%
